PubChem BioAssay AID1224830 | NIAID – 2016

- Test: 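Regulators of TLR4 signalling towards TNF-alpha in macrophage-like cells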 (primary screen)
- System: human THP-1 monocytic leukaemia cells, TNF dual-luciferase reporter clone, PMA-differentiated to macrophage-like cells
- Reagent: siRNA pool against human genes, 50 nM
- Duration: LPS for 4 h, given about 3 days after siRNA transfection
- Treatment: bacterial LPS (TLR4 ligand), 10 ng/ml
- Detection: 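TNF firefly reporter luminescence divided by renilla, normalised to the plate median, then turned into a robust z-score for each replicate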
- Reading the numbers: TNF reporter robust z-score: higher = stronger TNF reporter response to LPS
- Hit rule: 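a well is active when its z-score exceeds 2.8 or falls below -1.5; control wells carry no call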
This is a random part of about 18,000 deposited reagents. Of all reagents, about 2,900 (16%) are marked active. 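Calls are made per well; low scores hint the gene aids the LPS response, high scores that it dampens it.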 Repeated entries: four replicate wells of each siRNA pool.

After knock-down of SSBP3 (single stranded DNA binding protein 3), the screen gave TNF reporter robust z-score -0.94; inactive.
SSBP3 (single stranded DNA binding protein 3) showed TNF reporter robust z-score 0; inactive.
With knock-down of SSBP3 (single stranded DNA binding protein 3), the record shows TNF reporter robust z-score -0.12; inactive.
SSBP3 (single stranded DNA binding protein 3) showed TNF reporter robust z-score 0.01; inactive.
Against FKTN (fukutin), the values are TNF reporter robust z-score -0.39; inactive.
After knock-down of FKTN (fukutin), the screen gave TNF reporter robust z-score -0.2; inactive.
FKTN (fukutin) gave TNF reporter robust z-score 0.6; inactive.
For FKTN (fukutin), the values are TNF reporter robust z-score 3.06; active.
With knock-down of GLS2 (glutaminase 2), the screen gave TNF reporter robust z-score 1.98; inactive.
With knock-down of GLS2 (glutaminase 2), the record shows TNF reporter robust z-score 1.71; inactive.
After knock-down of GLS2 (glutaminase 2), the record shows TNF reporter robust z-score 1.59; inactive.
Silencing of GLS2 (glutaminase 2) resulted in: TNF reporter robust z-score 1.06; inactive.

Records listed so far marked active:
FKTN (fukutin) | TNF reporter robust z-score: 3.06; outcome: active

Next reagents:
Against ORAI2 (ORAI calcium release-activated calcium modulator 2), the values are TNF reporter robust z-score 0.67; inactive.
ORAI2 (ORAI calcium release-activated calcium modulator 2) gave TNF reporter robust z-score 0.65; inactive.
For ORAI2 (ORAI calcium release-activated calcium modulator 2), the values are TNF reporter robust z-score 0.38; inactive.
ORAI2 (ORAI calcium release-activated calcium modulator 2) showed TNF reporter robust z-score 0.98; inactive.
After knock-down of KRTAP20-2 (keratin associated protein 20-2) the results were TNF reporter robust z-score -1.02; inactive.
With knock-down of KRTAP20-2 (keratin associated protein 20-2) the results were TNF reporter robust z-score -0.76; inactive.
Against KRTAP20-2 (keratin associated protein 20-2) the deposit lists TNF reporter robust z-score -1.42; inactive.
KRTAP20-2 (keratin associated protein 20-2) showed TNF reporter robust z-score -0.39; inactive.
Against SOX10 (SRY-box transcription factor 10) the deposit lists TNF reporter robust z-score 1.05; inactive.
Depletion of SOX10 (SRY-box transcription factor 10) came out at: TNF reporter robust z-score -0.02; inactive.
With knock-down of SOX10 (SRY-box transcription factor 10), the record shows TNF reporter robust z-score 0.91; inactive.
Knock-down of SOX10 (SRY-box transcription factor 10) gave: TNF reporter robust z-score 1.19; inactive.
After knock-down of SEC16B (SEC16 homolog B, endoplasmic reticulum export factor) the results were TNF reporter robust z-score 0.21; inactive.
For SEC16B (SEC16 homolog B, endoplasmic reticulum export factor) the deposit lists TNF reporter robust z-score 0.78; inactive.
Against SEC16B (SEC16 homolog B, endoplasmic reticulum export factor), the values are TNF reporter robust z-score 0.44; inactive.
SEC16B (SEC16 homolog B, endoplasmic reticulum export factor) gave TNF reporter robust z-score 0.45; inactive.
Depletion of SLC26A3 resulted in: TNF reporter robust z-score -0.62; inactive.
Against SLC26A3, the entry reads TNF reporter robust z-score -0.38; inactive.
Silencing of SLC26A3 gave: TNF reporter robust z-score 0.32; inactive.
Silencing of SLC26A3 came out at: TNF reporter robust z-score 1.08; inactive.
